# Primary screen of a compound library

Values are the deposited “Percent Effect”, in %.
The record does not define 0% and 100%; most values in the screen are far below 50% and negative numbers occur (in some assays of this library far below -100).
The compounds are a random part of those screened.
Two or more numbers in one place are separate tests of the same structure; such repeats can differ widely.
A dash means the value is not listed here; it may have been measured.

A: 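Assay of Toxoplasma gondii numbers, read through their beta-galactosidase reporter with a colour substrate. Tested at 10 µM. The record gives no direction; the compounds picked for IC50 retests had high values, so higher reads as fewer parasites. Of about 67,000 compounds tested this way, about 260 (0.38%) reached 50% or more in at least one test.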
B: 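Whole-parasite assay of Trypanosoma brucei over 72 hours; the read-out is not stated. Concentration: 30 µM. Higher reads as stronger inhibition (inferred: compounds with an IC50 in retests scored well above the rest). Values scatter widely below zero; nearly all retest evidence comes from the higher of the two concentrations used. About 64,000 compounds were tested under these conditions; 1.5% (about 940) showed 50% or more at least once.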
C: 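Cell assay of Leishmania donovani living inside macrophages; the read-out is not stated. Tested at 30 µM. Direction is inferred from retests: higher values go with stronger inhibition. About 69,000 compounds were tested under these conditions; 1.5% (about 1,000) showed 50% or more at least once.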

| compound | A | B | C |
|---|---|---|---|
| `COCCN1CC[C@H](OC)[C@@H]1Cc1ccccc1.O=C(O)C(F)(F)F` | 6.328 | -24.73 | 16.57 |
| `CC(NC(=O)N1CCN(c2cccs2)CC1)c1ccc(C#N)cc1` (stereo unspecified) | 2.436 | -15.88 | 12.54 |
| `N#Cc1cccc(N2CCCC3(CN(C(=O)NC4CC4)CCO3)C2)c1` (stereo unspecified) | -56.06 | - | -0.1998 |
| `COc1ccc(CN(C)CCS(=O)(=O)c2ccc(Cl)cc2)cc1OC` | -2.955 | 8.022 | 56.02 |
| `COc1ccc(CC(=O)Nc2c(C)nc(N3CCCC3)nc2C)cc1` | 0.3861 | 12.94 | 12.82 and 32.27 |
| `Cn1cc(C(=O)NCC2CCN(C(=O)NCC(F)(F)F)CC2)cn1` | -1.406 | 18.45 | 0.3167 |
| `COc1ccccc1CCNC(=O)CC1(Cn2cnnn2)CCCCC1` | 12.38 | 0.4079 | 20.01 and 5.645 |
| `CN(C)CCC1CN(C(=O)c2cccc3c2OCC3)CCO1` (stereo unspecified) | 1.743 | -20.86 | -4.858 |
| `O=C(NCCCC(=O)N1CCN(CC2CC2)c2ccccc21)C1CC1` | -12.75 | 14.66 | 25.41 |
| `Cc1nn(CC(=O)NCCc2ccncc2)c(=O)n1Cc1ccccc1` | -0.2497 | -18.87 | 4.169 |
| `CC(C)Cc1nc(CN(C)c2cc(C(C)C)nc3ccnn23)no1` | -38.07 | -62.32 | 8.586 |
| `CN(C)Cc1cncc2c1CCN(Cc1ccoc1)C2.Cl.Cl.Cl` | 5.777 | -64.16 | 44.33 |
| `CN1CCN(Cc2cn3c(n2)CN(CC2CC2)CC3)CC1` | -8.896 | -134.1 | 14.59 |
| `CCc1noc(C2CCCCN2C(=O)c2ccc3c(c2)OCO3)n1` (stereo unspecified) | 4.108 | -6.296 | 61.74 |
| `N#Cc1cc2cc(Cl)cnc2nc1O` | 6.194 | - | 19.56 |
| `CC(C)c1cc(CNC(=O)Nc2cc(F)cc(N3CCCC3)c2)on1` | -4.854 | 36.32 | -30.31 |
| `Cc1cnn(CC2CCCN2C(=O)c2ccccc2-n2cccn2)c1` (stereo unspecified) | 12.28 | 8.802 | 13.76 |
| `O=C(NCCN1CCOCC1)c1ccc(-c2ccccc2)[nH]c1=O` | 3.728 | -30.58 | -3.573 |
| `CN1CCC(N(C)C[C@H]2CC[C@@H](Cc3ccc4occc4c3)O2)CC1` | -6.44 | 11.24 | 87.95 |
| `CCCOC1CCCN(C(=O)c2cnc(-c3csc(C)n3)nc2O)C1` (stereo unspecified) | -35.7 | 29.01 | -1.25 |
| `Cc1cccc(CCC(=O)Nc2ccnn2C2CCS(=O)(=O)C2)c1` (stereo unspecified) | -5.341 | -2.725 | -7.058 |
| `O=C(NCc1ccccn1)c1nnn(-c2ccc(Br)cc2)n1` | -1.885 | 44.66 | 12.73 |
| `CSc1cccc(CN2CCC(CCC(=O)NCCN(C)C)CC2)c1` | 3.103 | 18.71 | 20.41 |
| `CC(C)c1nccc(CN2CCCC(O)(CN3CCCC3)C2)n1` (stereo unspecified) | -32.42 | 17.13 | -4.495 |
| `O=C(CCOc1ccc(Cl)cc1)N1CCN(c2cnccn2)CC1` | -1.224 | 5.006 | -7.372 |
| `Cc1c(COC(C)C)cccc1NC(=O)N1CCCC(CO)C1` (stereo unspecified) | -2.045 | 4.421 | -14.35 |
| `Cc1cc(C)n(CC2CN(CCc3ccncc3)CCO2)n1` (stereo unspecified) | 23.47 | -25.09 | -2.714 |
| `COc1ccc(CNC(=O)NC(C)(CO)C2CC2)c(C(F)(F)F)c1` (stereo unspecified) | 12.37 | - | 34.55 |
| `COC(=O)c1ccc(CNC(=O)CN2C[C@@H](NC(C)=O)[C@H](C(C)C)C2)o1` | -6.127 | -44.67 | 21.13 |
| `CC(C)c1cc(COCCC(=O)O)no1` | 5.653 | -12.52 | 6.858 |
| `CCNC(=O)C1CCN(Cn2nc(-c3ccccc3)oc2=O)CC1` | -3.168 | -6.943 | 23.81 |
| `CCN(Cc1ccc(S(C)(=O)=O)cc1)Cc1nc(COC)no1` | -10.28 | 6.877 | 18.76 |
| `CN(C)CCCNC(=O)c1ccnc(OCc2ccccc2)c1` | -1.549 | -48.04 | 10.83 |
| `O=C(NCC(=O)N1CCCC(c2ccccc2)CC1)c1ccoc1` (stereo unspecified) | -15.93 | - | 24.45 |
| `CC(C)CN1CC(c2nc(CCc3ccccc3)n[nH]2)CC1=O` (stereo unspecified) | -2.151 | 13 | 12.29 |
| `[H][C@]12CNC[C@@]1(C(=O)NCc1nc(C)cc(C)n1)CN(C(=O)COC)C2` | -7.74 | 0.4504 | -12.67 |
| `CN(Cc1ccccc1CNC(=O)C1CNC(=O)N1)C1CCCCC1` (stereo unspecified) | 4.934 | 8.049 | -2.876 |
| `O=C(CN1CCCC(Cn2cncn2)C1)NCCOc1ccccc1` (stereo unspecified) | -0.4902 | -17.84 | -10.42 |
| `CC1(C)CN(Cc2c[nH]c(CC3CCCC3)n2)CC[C@]1(C)O` | 2.567 | -58.69 | 2.311 |
| `Cc1ccc(-c2nc(CN3CCOC(Cn4cccn4)C3)co2)cc1` (stereo unspecified) | -11.32 | -1.835 | 31.79 |
| `CCc1nc2n(n1)CC(NCc1cc(OC)c3c(c1)OCO3)CC2` (stereo unspecified) | 9.319 | - | -3.049 |
| `Cl.O=c1c2sccc2nc2n1CCN(Cc1ccsc1)CC2` | 12.68 | -37.59 | -11.93 |
| `Cl.NC(=O)N1CC2(CCNCC2)c2cc(Cl)ccc21` | 1.267 | -10.85 | 2.936 |
| `Cc1cc(CN(C)C(=O)Nc2ccccc2C)no1` | 25.11 | -52.14 | 12.56 |
| `CCN1CCCC(C)(C(=O)NCCCc2nc(C)cs2)C1` (stereo unspecified) | 4.578 | -4.946 | 29.5 |
| `CC(C)CN(Cc1ccc(O)c(C(=O)O)c1)Cc1cnn(C)c1` | -7.679 | -0.9667 | 14.8 |
| `[H][C@]12CN(C3CCC3)CCN1C(=O)N(C1CCCCC1)C2` | 4.735 | -10.2 | -20.8 |
| `CCn1ncc2[nH]c(-c3cc4c(cc3OC)OCO4)nc21` | 4.856 | -53.3 | 26.19 |
| `Cc1cncnc1C1CCN(CCO)CC1` | - | - | 31.05 |
| `Cc1cc(CN2CCN(CC(O)C(C)(C)C)CC2)no1` (stereo unspecified) | - | -5.809 | 1.473 |
| `O=C(O)CC(O)(CC(=O)O)C(=O)O.[H][C@@]12CC[C@@](O)(c3ccc(C)cn3)[C@]1([H])CN(Cc1ccccc1F)C2` | 5.065 | -13.23 | -14.17 and 2.655 |
| `O=C(O)C(F)(F)F.[H][C@@]12COC[C@]1(C(=O)NCCc1ccccc1)CN(Cc1cnn(C)c1)C2` | 19.09 | -58.97 | -11.94 |
| `CCCN(CCC)c1ncc(S(=O)(=O)c2ccccc2)c(N)n1` | 5.631 | 81.44 | 26.81 |
| `O=C(O)C(F)(F)F.O=C(O)C(F)(F)F.[H][C@@]12C[C@H](C(=O)N3CCCCO3)CN(Cc3cccnc3)[C@]1([H])CCO2` | -26.12 | -300.7 | 4.023 |
| `Cc1ccc(C)c(C(=O)CN2C(=O)c3ccccc3CS2(=O)=O)c1` | -4.039 | 20.88 | -22.17 |
| `CN(Cc1nncn1C)C(=O)c1cc(COc2ccccc2)[nH]n1` | 8.285 | -26.56 | -29.67 |
| `Cc1c(C(=O)N2CCN(C)CC2)n(C)c2ccc(Cl)cc12` | -0.2796 | 12.9 | 11.88 |
| `CCn1cnnc1C1CCN(C(=O)c2ccc(C(=O)OC)s2)CC1` | 4.023 | 15.75 | -8.666 |
| `CC(C)(C)C(=O)N1CCCC1c1ccc(C(=O)N2CCOCC2)s1` (stereo unspecified) | -2.761 | -272.2 | 15.13 |
| `O=C(O)C(F)(F)F.O=C(c1c[nH]cn1)N1CCC(F)(F)C2(CCN(c3cccc(F)c3)C2)C1` (stereo unspecified) | -4.853 | -18.36 | 19.4 and 3.912 |
| `O=C(O)C(F)(F)F.[H][C@@]12C[C@@H](C)O[C@]1([H])CN(Cc1c(C)noc1C)C2` | 13.07 | -44.76 | 30.09 |
| `COCC1c2nnn(CC3CC3)c2CCN1Cc1ccncc1.O=C(O)C(F)(F)F.O=C(O)C(F)(F)F` (stereo unspecified) | 12.9 | 24.69 | 21.99 |
| `CCS(=O)(=O)NC(CCSC)C(=O)Nc1ccccc1C` (stereo unspecified) | 4.453 | -26.22 | -9.604 |
| `CCn1ncc2c1CN(CCc1cccc(Cl)c1)CC2COC.O=C(O)C(F)(F)F.O=C(O)C(F)(F)F` (stereo unspecified) | 20.16 | 4.315 | 43.2 |
| `Cl.Fc1ccccc1OCCc1cc(C2CNCCO2)n[nH]1` (stereo unspecified) | 9.19 | -37.46 | 9.609 and 18.84 |
| `O=C(c1cncs1)N1CCC(c2cnccn2)CC1` | -28.97 | -12.82 | -15.79 |
| `O=C(Cc1ccc(F)cc1)N1CCCCC1c1ccn2ccnc2n1` (stereo unspecified) | -5.317 | 13.4 | 29.88 |
| `COc1c(C2CCCN2Cc2nccn2C)c(C)nn1C` (stereo unspecified) | -0.9201 | -2.694 | 26.65 |
| `CSCc1nc(CCNC(=O)c2cnn(C(C)C)c2)cs1` | -0.1291 | 1.224 | 46.08 |
| `CC(C)C(=O)N1CCC(c2c(C(N)=O)sc3ccccc23)C1` (stereo unspecified) | -2.374 | 1.224 | 2.33 |
| `Cc1noc(OCC(=O)N2CCCCC2C)n1` (stereo unspecified) | -0.8959 | -30.59 | 10.7 |

From ChEMBL document CHEMBL3988442, “University of Dundee, Small-Polar-MMV Screening Library” (2021).